Measured values as given in the supplement of paper PMC3334620.
Over roughly 33,000 sequences, “E-score (-0.5 to 0.5)” has its median near -0.0034; the highest 2% begin near 0.25. Some of the results follow.

Biological target: T1, Yap3 (UniProt P38749)
T1 sequence: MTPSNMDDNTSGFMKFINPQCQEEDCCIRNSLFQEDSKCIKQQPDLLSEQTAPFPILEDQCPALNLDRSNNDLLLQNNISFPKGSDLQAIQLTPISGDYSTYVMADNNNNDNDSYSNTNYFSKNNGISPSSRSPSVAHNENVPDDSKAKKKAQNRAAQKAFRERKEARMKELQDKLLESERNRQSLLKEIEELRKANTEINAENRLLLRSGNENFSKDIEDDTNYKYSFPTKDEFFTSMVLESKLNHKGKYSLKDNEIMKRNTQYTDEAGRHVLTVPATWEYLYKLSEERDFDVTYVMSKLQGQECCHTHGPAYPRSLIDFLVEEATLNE
Test: PBM E-score (8-mer binding enrichment) (E-score (-0.5 to 0.5)); higher = stronger / more preferred TF binding
Conditions: protein concentration: 100 nM; construct: GST-full length
Outline: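 PURExpress in vitro transcription/translation supplied GST-tagged yeast transcription factors, either full-length or DNA-binding domain. Applied at about 100-200 nM to universal all-10-mer Agilent arrays double-stranded by primer extension, the bound protein was detected with fluorescent anti-GST. E-scores, modified Wilcoxon-Mann-Whitney statistics, were given by the Universal PBM Analysis Suite to ungapped eight-base words pooled with their reverse complements after masliner normalisation.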

Sequence	PBM E-score
AATACACC	0.272
CGACCTAG	0.0835
TCGCTTCA	0.0146
GGCAGACA	-0.0641
GCCCCAAA	-0.153
GCGCTTCC	0.00479
GCTTGAAA	0.106
ATAACGTC	0.0456
ACCGCAAG	-0.0158
CTTTGTCA	0.15
ATGTTCGA	-0.0713
ATTGACTC	-0.0472
AGCATAAC	0.0172
GCTCGGTA	-0.0865
TACGGATA	0.0129
GTCAGGGA	-0.177
ACTTTATA	0.259
CAGGGTGG	-0.191
CTGTTGAC	0.0345
ACATGTGA	-0.0311
CGACTGGC	-0.207
ATACAAGC	0.119
ATCTGAGA	-0.0652
CACATATC	0.0834
ATTCTACC	0.0648

Sequence	PBM E-score
GATGACCA	0.0306
ACGTCCTC	-0.0516
AGATACGC	-0.00087
CAAAATAA	0.296
ACGTAAAG	0.184
AAACGACA	0.0941
AGTATTGA	0.147
CCTCTGCG	-0.264
CTCCACCC	-0.336
ACATATAG	0.171
AAGGAACT	0.0541
TGTGAAAA	0.0986
CGAATTGA	-0.0283
GATTGCAC	0.102
AAGATGGT	-0.0188
ACAGGACT	-0.203
GATCAGGA	-0.0582
GATAGATA	0.0286
GTCGCTCA	-0.0962
CTCAGCCC	-0.339
AAGGCGGG	-0.215
AGCTACGA	-0.0214
CATTCTCC	0.0344
ACGATGTG	0.0904
TCCTTCAA	0.026

Sequence	PBM E-score
TCCATCCA	-0.0216
CGCGTGTA	-0.0565
CGATTTTC	0.206
ACGCGTCG	0.12
AGATCTGA	-0.0273
CCTAGTCC	-0.216
TCTGTACA	0.106
TGGACAAA	0.125
CCGTTTCG	-0.0506
AATTCGAC	-0.194
ACAGTTCG	0.149
CGCACCGA	-0.0113
GATATCAC	0.0808
CGTTGCAC	-0.0748
CCACTGAC	-0.273
ACTATTTC	0.224
ACCCCCCG	-0.355
GACTAGTA	0.0783
TTTGAAAA	0.19
ATTTATTA	0.277
ATCTCCAT	0.0721
AATTTGAG	0.0737
GGACTGAC	-0.133
AATCAGAA	0.0468
CACTGTCG	-0.0928

35 neighbouring entries already listed, for reference:
Sequence	PBM E-score
CGAATTGA	-0.0283
GATTGCAC	0.102
AAGATGGT	-0.0188
ACAGGACT	-0.203
GATCAGGA	-0.0582
GATAGATA	0.0286
GTCGCTCA	-0.0962
CTCAGCCC	-0.339
AAGGCGGG	-0.215
AGCTACGA	-0.0214
CATTCTCC	0.0344
ACGATGTG	0.0904
TCCTTCAA	0.026
TCCATCCA	-0.0216
CGCGTGTA	-0.0565
CGATTTTC	0.206
ACGCGTCG	0.12
AGATCTGA	-0.0273
CCTAGTCC	-0.216
TCTGTACA	0.106
TGGACAAA	0.125
CCGTTTCG	-0.0506
AATTCGAC	-0.194
ACAGTTCG	0.149
CGCACCGA	-0.0113
GATATCAC	0.0808
CGTTGCAC	-0.0748
CCACTGAC	-0.273
ACTATTTC	0.224
ACCCCCCG	-0.355
GACTAGTA	0.0783
TTTGAAAA	0.19
ATTTATTA	0.277
ATCTCCAT	0.0721
AATTTGAG	0.0737

(continued)

Sequence	PBM E-score
GGCCAGCC	-0.242
CGAAGGAC	-0.243
ACAAGCTC	-0.076
AACCGGGG	-0.287
AACACCGG	0.00908
CGAGGCGC	-0.0513
AGGGGTAA	-0.0593
CGACGCGC	0.039
TATCATAA	0.196
CGAACCGC	0.0385
ATCGAGAG	-0.0157
AGTGAGCA	-0.0394
AATGACGC	-0.00212
GACGCGCA	0.0727
TACGATGA	0.0047
ACCCTACC	-0.0075
CTTGTGCA	0.0949
AGAGCGTA	-0.0491
CTCTGGGC	-0.0869
GCCTTAAC	-0.0294
CCTGTAGC	-0.261
AAGCTGCC	-0.0817
AATCCTCA	-0.0611
CAAAACTA	0.223
GACGCACC	-0.0373

Sequence	PBM E-score
CGCTATCA	0.102
CAACCGTA	-0.204
AAATAGCG	0.175
GGATCGAA	-0.113
CCGTTTTC	0.117
CCCCTGTC	-0.308
ATAATATG	0.307
AGGCCTAA	0.0865
ACACCTTG	-0.0357
AACTCCCA	0.0399
CACGAAAA	0.176
GATCCCTA	-0.144
GTCGGTGA	-0.149
ACCTTGTA	0.0214
GCTACCGA	-0.00336
CGCCTGCC	-0.27
AAGTCCGC	-0.104
CTCCGCTA	-0.187
AGGTCCGG	-0.182
ACAGAACG	0.0442
CCGAGAAC	0.0294
ACGCTGCA	-0.131
ATATCGTC	0.00282
GCAAATCA	0.134
AACGCTAC	0.0181

Sequence	PBM E-score
AACCTCTT	0.00568
AGGATCCA	0.0753
CCTCACCC	-0.144
GCTCTCAC	-0.191
AAGCTCAT	-0.1
AATTGCGA	0.0115
AACGTCCT	0.0567
CGGTAGAC	0.0616
AGACAAGA	0.149
TAACACAA	0.174
ACAGGTCC	-0.273
AGCTTGGA	-0.138
AATATCAA	0.244
ATAAGGTA	0.21
TCCTTCGA	-0.0934
GAAGATTC	-0.0627
AAGAGTTC	-0.102
GATCGAAA	0.124
GAAAGTTC	-0.149
AGTAGGTA	0.0502
ACAACGCT	0.0729
CTTTCGCC	-0.0432
GAACACTC	-0.0352
GTACTCTA	-0.0589
CCGCCTAA	-0.155

Sequence	PBM E-score
GCTGCCGA	-0.256
GATTTCCC	0.124
CGGCTAAC	0.0657
AGCGGACT	-0.266
ATTAGGAA	0.0996
AACGTTAA	0.159
ATACTAGC	0.0285
GATGACTA	0.113
CAATGTAC	-0.154
GGATCAAC	0.065
CCCGGGGA	-0.335
CTGTAATA	0.113
ATAAAAAT	0.199
ATTGGTTG	0.118
CTCGAGCC	-0.0222
AAGAACGC	0.0756
ATCCGGAC	-0.146
AGATCTTC	0.0262
GATAGAAC	0.109
ATTGCTGA	0.093
CCGGCCAG	-0.181
GAATGTAC	0.0877
